These are yes or no findings as the source states them, for the method shown. In cells and extracts the contact can be indirect. Some binding calls cover weakened binding; strength is not graded here.
What was measured:
[1] = target: TAX1-Binding Protein-1 (TAX1BP1/T6BP), endogenous (human (endogenous in HeLa-CIITA, DG75 and KG-1)) (UniProt Q86VP1); assay: co-IP
[2] = target: TAX1-Binding Protein-1 (TAX1BP1/T6BP), endogenous (human (endogenous in HeLa-CIITA, DG75 and KG-1)) (UniProt Q86VP1); assay: co-IP; remark: listed apart in the source
[3] = target: TAX1-Binding Protein-1 (TAX1BP1/T6BP), endogenous (human (endogenous in HeLa-CIITA, DG75 and KG-1)) (UniProt Q86VP1); assay: proximity ligation
[4] = target: TAX1-Binding Protein-1 (TAX1BP1/T6BP), endogenous (human (endogenous in HeLa-CIITA, DG75 and KG-1)) (UniProt Q86VP1); assay: co-IP; remark: listed apart in the source

Amino acid sequences for entries named in this document (tags omitted).
UniProt Q86VP1: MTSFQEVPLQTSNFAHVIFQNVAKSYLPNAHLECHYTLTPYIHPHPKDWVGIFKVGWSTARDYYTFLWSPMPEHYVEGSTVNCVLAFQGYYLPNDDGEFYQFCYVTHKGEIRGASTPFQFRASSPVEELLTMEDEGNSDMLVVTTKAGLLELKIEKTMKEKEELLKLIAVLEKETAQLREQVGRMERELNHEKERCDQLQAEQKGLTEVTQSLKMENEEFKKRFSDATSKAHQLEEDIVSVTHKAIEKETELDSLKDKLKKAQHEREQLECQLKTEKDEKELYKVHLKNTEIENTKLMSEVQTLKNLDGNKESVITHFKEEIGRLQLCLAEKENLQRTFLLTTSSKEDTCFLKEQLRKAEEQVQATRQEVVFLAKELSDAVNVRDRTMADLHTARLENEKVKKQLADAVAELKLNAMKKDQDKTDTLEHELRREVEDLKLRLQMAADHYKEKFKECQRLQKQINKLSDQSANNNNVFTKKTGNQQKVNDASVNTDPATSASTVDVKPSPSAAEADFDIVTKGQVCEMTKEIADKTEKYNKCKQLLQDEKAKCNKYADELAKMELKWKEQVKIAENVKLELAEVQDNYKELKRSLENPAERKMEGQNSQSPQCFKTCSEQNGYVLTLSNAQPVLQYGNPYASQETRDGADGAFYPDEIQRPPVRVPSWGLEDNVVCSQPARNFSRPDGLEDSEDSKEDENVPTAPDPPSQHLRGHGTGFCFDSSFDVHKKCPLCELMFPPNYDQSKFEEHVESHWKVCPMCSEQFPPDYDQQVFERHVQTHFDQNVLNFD

Measured: binding

B1: Calnexin (CANX), endogenous (natural protein)
chain: HDGHDDDVIDIEDDLDDVIEEVEDSKPDTTAPPSSPKVTYKAPVPTGEVYFADSFDRGTLSGWILSKAKKDDTDDEIAKYDGKWEVEEMKESKLPGDKGLVLMSRAKHHAISAKLNKPFLFDTKPLIVQYEVNFQNGIECGGAYVKLLSKTPELNLDQFHDKTPYTIMFGPDKCGEDYKLHFIFRHKNPKTGIYEEKHAKRPDADLKTYFTDKKTHLYTLILNPDNSFEILVDQSVVNSGNLLNDMTPPVNPSREIEDPEDRKPEDWDERPKIPDPEAVKPDDWDEDAPAKIPDEEATKPEGWLDDEPEYVPDPDAEKPEDWDEDMDGEWEAPQIANPRCESAPGCGVWQRPVIDNPNYKGKWKPPMIDNPSYQGIWKPRKIPNPDFFEDLEPFRMTPFSAIGLELWSMTSDIFFDNFIICADRRIVDDWANDGWGLKKAADGAAEPGVVGQMIEAAEERPWLWVVYILTVALPVFLVILFCCSGKKQTSGMEYKKTDAPQPDVKEEEEEKEEEKDKGDEEEEGEEKLEEKQKSDAEEDGGTVSQEEEDRKPKAEEDEILNRSPRNRKPRRE
binds: all assays above
